Experimental data: PubChem BioAssay AID1224828 (NIAID, 2016)
The whole screen tested about 17,000 reagents; shown is a random part of them. Over the whole deposit, 762 (4.5%) are marked active. 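Active calls include both raised and lowered p65 entry, mostly lowered; wells with fewer than 50 cells lack a z-score.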 Raw values are not corrected between plates.

Screen: 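Regulators linking TLR4 signalling to p65 nuclear translocation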 (primary screen)
System: mouse RAW264.7 G9 macrophage reporter cells (GFP-p65, Tnf promoter-mCherry)
Reagents: siRNA pool against mouse genes, 100 nM
Duration: 2 days siRNA transfection, then 40 min LPS before fixation
Challenge: LPS (Salmonella minnesota R595) at 10 ng/ml
Read-out: 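Imaged p65 nuclear translocation ratio, normalised to the plate median, converted to robust z-scores and averaged across two replicates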
Direction: p65 translocation robust z-score: higher = more nuclear NF-kappaB p65 after LPS than the plate median; nuclear/cytoplasmic p65 ratio: higher = more nuclear NF-kappaB p65
Rule for the call: 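Active if robust z is above 3.3 (negative regulators) or below -1.56, the Tlr4 control median (positive regulators); activity score 50 or more; control wells not called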
Calls: active = hit (p65 shift raised or lowered); inactive = no clear change

| Target gene | p65 translocation robust z-score | nuclear/cytoplasmic p65 ratio, rep 1 | nuclear/cytoplasmic p65 ratio, rep 2 | low cell count flag | Outcome |
| --- | --- | --- | --- | --- | --- |
| Serf1 | -0.56 | 1.3 | 1.22 | enough cells to score | inactive |
| Arhgap18 | 0.8 | 1.73 | 1.61 | enough cells to score | inactive |
| Ifi44 | 0.96 | 1.92 | 1.6 | enough cells to score | inactive |
| Rabep2 | -0.94 | 1.25 | 1.11 | enough cells to score | inactive |
| Spock3 | 1.8 | 1.72 | 1.38 | enough cells to score | inactive |
| Chmp5 | – | 1.14 | 1.47 | fewer than 50 cells per well; well left out of scoring | inactive |
| Slc35d1 | – | 1.89 | 1.38 | fewer than 50 cells per well; well left out of scoring | inactive |
| Brip1os | 0.43 | 1.27 | 1.37 | enough cells to score | inactive |
| Ugt2b37 | -0.07 | 1.49 | 1.32 | enough cells to score | inactive |
| Dlec1 | 0.42 | 1.67 | 1.57 | enough cells to score | inactive |
| Acot13 | -0.49 | 1.35 | 1.1 | enough cells to score | inactive |
| Nherf2 | – | 0 | 0 | fewer than 50 cells per well; well left out of scoring | inactive |
| Ankrd6 | 0.81 | 1.67 | 1.87 | enough cells to score | inactive |
| Msgn1 | -1.01 | 1.6 | 1.46 | enough cells to score | inactive |
| Adamts12 | -0.59 | 1.47 | 1.59 | enough cells to score | inactive |
| Nlrp9a | -0.15 | 1.42 | 1.32 | enough cells to score | inactive |
| Cnn2 | 0.44 | 1.61 | 1.9 | enough cells to score | inactive |
| Dnah5 | -1.52 | 1.24 | 1.21 | enough cells to score | inactive |
| Drc5 | -1.82 | 1.07 | 1.05 | enough cells to score | active |
| Sval2 | 1.57 | 1.66 | 1.38 | enough cells to score | inactive |
| Pnpt1 | 0.91 | 1.37 | 1.32 | enough cells to score | inactive |
| Frmpd3 | 0.42 | 1.66 | 1.89 | enough cells to score | inactive |
| Lrrc57 | 0.53 | 1.52 | 1.49 | enough cells to score | inactive |
| Obox3 | -1.12 | 1.56 | 1.35 | enough cells to score | inactive |
| Tfcp2 | 1.05 | 1.65 | 1.68 | enough cells to score | inactive |
| Prr15l | 0.09 | 1.6 | 1.85 | enough cells to score | inactive |
| Slc6a2 | 0.54 | 1.48 | 1.71 | enough cells to score | inactive |
| A730036I17Rik | -1.3 | 1.2 | 1.35 | enough cells to score | inactive |
| Atm | 0.57 | 1.67 | 1.46 | enough cells to score | inactive |
| Brpf1 | -0.65 | 1.54 | 1.5 | enough cells to score | inactive |
| Dyrk2 | -0.87 | 1.55 | 0 | enough cells to score | inactive |
| Angel1 | 1.1 | 1.64 | 1.65 | enough cells to score | inactive |
| Tmem214 | -0.11 | 1.44 | 1.51 | enough cells to score | inactive |
| Kazn | 0.87 | 1.59 | 1.62 | enough cells to score | inactive |
| Man2a2 | 1.49 | 1.88 | 1.82 | enough cells to score | inactive |
| Qrfprl | – | 1.41 | 1.45 | fewer than 50 cells per well; well left out of scoring | inactive |
| Ttc16 | 1.08 | 1.4 | 1.56 | enough cells to score | inactive |
| D830014E11Rik | 0.39 | 1.57 | 1.66 | enough cells to score | inactive |
| Uba6 | – | 1.2 | 1.36 | fewer than 50 cells per well; well left out of scoring | inactive |
| Iqcb1 | 1.07 | 1.49 | 1.78 | enough cells to score | inactive |
| Crh | 0.71 | 1.57 | 1.47 | enough cells to score | inactive |
| Mrpl4 | 0.76 | 1.98 | 1.64 | enough cells to score | inactive |
| Gpr55 | -0.03 | 1.5 | 1.58 | enough cells to score | inactive |
| Pllp | -0.61 | 1.26 | 1.15 | enough cells to score | inactive |
| Ndfip2 | 1.97 | 2.1 | 1.89 | enough cells to score | inactive |
| Ptgr2 | – | 1.37 | 1.41 | fewer than 50 cells per well; well left out of scoring | inactive |
| Echdc1 | -0.92 | 1.38 | 1.21 | enough cells to score | inactive |
| Wdcp | -0.3 | 1.47 | 1.4 | enough cells to score | inactive |
| Efcc1 | -0.37 | 1.28 | 1.48 | enough cells to score | inactive |
| Creld2 | -0.49 | 1.36 | 1.33 | enough cells to score | inactive |
| Adam2 | 0.43 | 1.71 | 1.66 | enough cells to score | inactive |
| Mrpl24 | -1.17 | 1.64 | 1.38 | enough cells to score | inactive |
| Rtn4rl1 | 0.72 | 1.65 | 1.59 | enough cells to score | inactive |
| Dpep1 | 0.92 | 1.64 | 1.46 | enough cells to score | inactive |
| B230354K17Rik | 2.59 | 1.94 | 1.92 | enough cells to score | inactive |
| Tespa1 | -0.97 | 1.36 | 1.33 | enough cells to score | inactive |
| Pnpla3 | – | 1.41 | 1.85 | fewer than 50 cells per well; well left out of scoring | inactive |
| Pdzrn3 | – | 1.34 | 1.19 | fewer than 50 cells per well; well left out of scoring | inactive |
| Nsun3 | 0.27 | 1.53 | 1.66 | enough cells to score | inactive |

Records listed so far marked active:
| Target gene | p65 translocation robust z-score | nuclear/cytoplasmic p65 ratio, rep 1 | nuclear/cytoplasmic p65 ratio, rep 2 | low cell count flag | Outcome |
| --- | --- | --- | --- | --- | --- |
| Drc5 | -1.82 | 1.07 | 1.05 | enough cells to score | active |
